PubChem BioAssay AID743454, Peter MacCallum Cancer Centre | 2014
Purpose: 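Search for knock-downs that restore vorinostat killing in resistant colon cancer cells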 (primary screen). Cells: human HCT116-VR colon cancer cells, selected for vorinostat resistance. Reagent: siRNA pool against human genes, 40 nM siRNA pool. Time to read-out: vorinostat for 24 h, read-out about 72 h after transfection. Conditions: vorinostat at 2.5 µM final. Read-out: 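Two measures, CellTiter-Fluor viability and luminescent caspase 3/7 activity, each as fold change against same-plate mock wells, mean of duplicates, then screen-wide robust z-score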. Scale: viability robust z-score: higher = more viable cells than screen typical; caspase robust z-score: higher = more caspase 3/7 activity than screen typical. Rule for the call: 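a knock-down is a hit when classed RV1 or RV2 for lowered viability, or CA1 or CA2 for caspase activation; those lethal without drug were dropped; hits were retested singly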.
The whole screen tested about 18,000 reagents; shown is a random part of them. 450 of them (2.5%) count as active. 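Single biological run; no consistent viability z cut-off exists, so the class columns, not z-scores, define the calls.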 Entries without a mark were called inactive.

no.	gene	viability hit class	caspase hit class	viability robust z-score	caspase robust z-score
1	SNAPC3	no change	no change	0.17	-0.74
2	MROH9	no change	no change	2.23	-0.02
3	CD164	no change	no change	0.14	0.26
4	TIGD5	no change	no change	2.12	0
5	CYC1	no change	no change	1.23	0.22
6	MCM2	no change	no change	0.08	-1.04
7	NPDC1	no change	no change	0.03	2.19
8	LKAAEAR1	no change	no change	-0.52	3.26
9	THRA	no change	no change	0.9	-0.45
10	CACNA1I	no change	no change	-0.76	-0.04
11	IL17REL	no change	no change	0.07	-0.7
12	OR13C9	no change	no change	-1.5	1.56
13	GRHL3	no change	no change	-2.04	2
14	PDE5A	no change	no change	-0.48	-0.87

Next part; the last 3 above are carried over.
no.	gene	viability hit class	caspase hit class	viability robust z-score	caspase robust z-score
12	OR13C9	no change	no change	-1.5	1.56
13	GRHL3	no change	no change	-2.04	2
14	PDE5A	no change	no change	-0.48	-0.87
15	ADGRE5	no change	no change	1.16	1.38
16	UCP2	no change	no change	-0.15	-0.35
17	OR5AN1	no change	no change	-0.24	2.8
18	TMPRSS9	no change	no change	0.13	0.12
19	CRAMP1	no change	no change	0.86	-0.56
20	GTSE1	no change	no change	0.28	0.74
21	KLHDC2	no change	no change	1	1.04
22	E2F8	no change	no change	-0.06	-0.75
23	ERCC3	no change	no change	0.09	-0.94
